Record: PubChem BioAssay AID602196 (INSERM, 2012)
Shown is one part, drawn at random, of about 23,000 deposited reagents. In the full data, 455 (2%) got an active call. 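Active includes both protection and sensitisation; some change values fall well beyond the stated -50 to +50 range.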 Not all columns of the deposit are shown. Not stated in the record: the amount of reagent.

- Purpose: 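Genes whose knock-down alters cisplatin killing of lung cancer cells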
- Cell system: human A549 lung cancer cells
- Reagents: siRNA pair against human genes
- Duration: 48 h transfection before cisplatin; time from cisplatin to read-out not stated
- Treatment: cisplatin at a dose killing half of control-siRNA cells; exact dose and duration not given
- Read-out: 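Cisplatin cell death as a shift from the 50% death seen with control siRNA; siRNAs toxic or growth-blocking alone scored 0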
- Reading the numbers: two-siRNA summed score (-2 to +2): higher = both siRNAs protect from cisplatin killing; -2 means both sensitise
- Active means: 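siRNAs harmful alone (LDH or WST-1) get 0; others get +1 for less and -1 for more cisplatin killing; genes are active when the two siRNAs give the same sign, summing to ±2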
- Meaning of the calls: active = both siRNAs shift cisplatin killing the same way; inactive = no consistent shift, or siRNA harmful alone

How did the screen score ARFGEF3?
two-siRNA summed score (-2 to +2): 1; Call: inactive

What did the screen give for LOC441793?
two-siRNA summed score (-2 to +2): 0; Call: inactive

For ZFPL1, what does the deposit list?
two-siRNA summed score (-2 to +2): -1; Call: inactive

What is on record for CLEC5A?
two-siRNA summed score (-2 to +2): 0; Call: inactive

Which result is listed for TNFRSF4?
two-siRNA summed score (-2 to +2): 0; Call: inactive

Which result is listed for RHOG?
two-siRNA summed score (-2 to +2): 1; Call: inactive

With COX5A, what was measured?
two-siRNA summed score (-2 to +2): 0; Call: inactive

How did the screen score GFI1B?
two-siRNA summed score (-2 to +2): 0; Call: inactive

Which result is listed for ZNF587?
two-siRNA summed score (-2 to +2): 0; Call: inactive

For GLB1, what was measured?
two-siRNA summed score (-2 to +2): -1; Call: inactive

What is on record for PADI1?
two-siRNA summed score (-2 to +2): 1; Call: inactive

For DNAJB6, what was measured?
two-siRNA summed score (-2 to +2): 0; Call: inactive

How did the screen score RAB3C?
two-siRNA summed score (-2 to +2): -1; Call: inactive

For LOC442651, how do the results read?
two-siRNA summed score (-2 to +2): 0; Call: inactive

Which result is listed for APCDD1?
two-siRNA summed score (-2 to +2): 0; Call: inactive

With MXRA8, what does the deposit list?
two-siRNA summed score (-2 to +2): 0; Call: inactive

How did the screen score PREP?
two-siRNA summed score (-2 to +2): 0; Call: inactive

What is on record for CRYZ?
two-siRNA summed score (-2 to +2): 0; Call: inactive

What is on record for KRABD2?
two-siRNA summed score (-2 to +2): 0; Call: inactive

What is on record for LOC389224?
two-siRNA summed score (-2 to +2): 0; Call: inactive

How did the screen score ZDHHC17?
two-siRNA summed score (-2 to +2): 0; Call: inactive
